# No constants are given. Whether binding was seen depends on the method and setting. In cells and extracts the contact can be indirect. A yes stands for co-enrichment or nearness to the bait. Other partners may have been found.
# Chains of the proteins cited; added tags and fusions are not shown.
# UniProt Q6PDQ2: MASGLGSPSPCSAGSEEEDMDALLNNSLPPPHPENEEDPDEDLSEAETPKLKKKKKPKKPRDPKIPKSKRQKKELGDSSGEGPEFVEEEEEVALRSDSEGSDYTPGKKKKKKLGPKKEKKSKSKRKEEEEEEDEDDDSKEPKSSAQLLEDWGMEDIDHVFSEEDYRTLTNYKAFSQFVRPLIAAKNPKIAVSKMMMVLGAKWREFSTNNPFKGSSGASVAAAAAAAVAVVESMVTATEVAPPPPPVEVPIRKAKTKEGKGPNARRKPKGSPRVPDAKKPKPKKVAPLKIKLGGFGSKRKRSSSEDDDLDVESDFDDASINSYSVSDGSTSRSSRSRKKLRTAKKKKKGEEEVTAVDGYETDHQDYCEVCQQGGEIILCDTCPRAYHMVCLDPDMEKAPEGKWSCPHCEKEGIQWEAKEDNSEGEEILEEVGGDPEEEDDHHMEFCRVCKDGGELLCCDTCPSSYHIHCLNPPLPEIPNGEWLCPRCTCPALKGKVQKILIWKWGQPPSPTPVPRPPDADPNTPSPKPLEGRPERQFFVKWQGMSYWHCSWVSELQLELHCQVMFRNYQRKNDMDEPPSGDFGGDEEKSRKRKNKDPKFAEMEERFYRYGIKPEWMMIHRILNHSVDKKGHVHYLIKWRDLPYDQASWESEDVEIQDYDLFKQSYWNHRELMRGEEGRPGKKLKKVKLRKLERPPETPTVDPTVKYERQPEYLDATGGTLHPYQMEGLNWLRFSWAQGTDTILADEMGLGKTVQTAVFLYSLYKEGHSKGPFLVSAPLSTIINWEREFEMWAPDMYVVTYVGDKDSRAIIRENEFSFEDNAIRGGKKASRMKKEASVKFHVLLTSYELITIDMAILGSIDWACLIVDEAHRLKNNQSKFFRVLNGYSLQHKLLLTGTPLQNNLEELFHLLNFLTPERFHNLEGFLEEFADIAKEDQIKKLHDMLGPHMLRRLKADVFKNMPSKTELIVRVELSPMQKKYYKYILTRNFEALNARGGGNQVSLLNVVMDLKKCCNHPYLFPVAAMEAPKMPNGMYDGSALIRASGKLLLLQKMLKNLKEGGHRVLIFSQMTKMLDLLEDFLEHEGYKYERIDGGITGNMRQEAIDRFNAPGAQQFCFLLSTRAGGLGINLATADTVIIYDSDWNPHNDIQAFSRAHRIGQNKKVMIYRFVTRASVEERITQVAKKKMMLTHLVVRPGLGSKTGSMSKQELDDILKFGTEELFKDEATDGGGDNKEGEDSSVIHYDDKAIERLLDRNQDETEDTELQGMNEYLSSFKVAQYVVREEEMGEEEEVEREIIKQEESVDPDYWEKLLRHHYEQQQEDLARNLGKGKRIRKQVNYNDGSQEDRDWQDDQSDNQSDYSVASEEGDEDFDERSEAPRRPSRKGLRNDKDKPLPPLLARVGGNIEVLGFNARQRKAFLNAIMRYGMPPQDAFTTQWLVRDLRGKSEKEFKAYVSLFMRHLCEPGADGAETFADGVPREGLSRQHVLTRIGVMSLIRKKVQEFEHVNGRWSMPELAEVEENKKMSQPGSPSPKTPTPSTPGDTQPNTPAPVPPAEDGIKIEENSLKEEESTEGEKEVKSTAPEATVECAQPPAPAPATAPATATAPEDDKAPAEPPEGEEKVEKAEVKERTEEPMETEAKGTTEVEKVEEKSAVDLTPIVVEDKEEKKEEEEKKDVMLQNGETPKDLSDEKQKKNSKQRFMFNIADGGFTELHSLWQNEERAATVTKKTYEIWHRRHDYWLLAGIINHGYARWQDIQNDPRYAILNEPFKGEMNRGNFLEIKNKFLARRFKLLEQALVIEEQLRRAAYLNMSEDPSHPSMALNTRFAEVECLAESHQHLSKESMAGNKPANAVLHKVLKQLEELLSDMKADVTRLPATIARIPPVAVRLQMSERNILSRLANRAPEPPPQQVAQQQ
# UniProt E9Q7E2: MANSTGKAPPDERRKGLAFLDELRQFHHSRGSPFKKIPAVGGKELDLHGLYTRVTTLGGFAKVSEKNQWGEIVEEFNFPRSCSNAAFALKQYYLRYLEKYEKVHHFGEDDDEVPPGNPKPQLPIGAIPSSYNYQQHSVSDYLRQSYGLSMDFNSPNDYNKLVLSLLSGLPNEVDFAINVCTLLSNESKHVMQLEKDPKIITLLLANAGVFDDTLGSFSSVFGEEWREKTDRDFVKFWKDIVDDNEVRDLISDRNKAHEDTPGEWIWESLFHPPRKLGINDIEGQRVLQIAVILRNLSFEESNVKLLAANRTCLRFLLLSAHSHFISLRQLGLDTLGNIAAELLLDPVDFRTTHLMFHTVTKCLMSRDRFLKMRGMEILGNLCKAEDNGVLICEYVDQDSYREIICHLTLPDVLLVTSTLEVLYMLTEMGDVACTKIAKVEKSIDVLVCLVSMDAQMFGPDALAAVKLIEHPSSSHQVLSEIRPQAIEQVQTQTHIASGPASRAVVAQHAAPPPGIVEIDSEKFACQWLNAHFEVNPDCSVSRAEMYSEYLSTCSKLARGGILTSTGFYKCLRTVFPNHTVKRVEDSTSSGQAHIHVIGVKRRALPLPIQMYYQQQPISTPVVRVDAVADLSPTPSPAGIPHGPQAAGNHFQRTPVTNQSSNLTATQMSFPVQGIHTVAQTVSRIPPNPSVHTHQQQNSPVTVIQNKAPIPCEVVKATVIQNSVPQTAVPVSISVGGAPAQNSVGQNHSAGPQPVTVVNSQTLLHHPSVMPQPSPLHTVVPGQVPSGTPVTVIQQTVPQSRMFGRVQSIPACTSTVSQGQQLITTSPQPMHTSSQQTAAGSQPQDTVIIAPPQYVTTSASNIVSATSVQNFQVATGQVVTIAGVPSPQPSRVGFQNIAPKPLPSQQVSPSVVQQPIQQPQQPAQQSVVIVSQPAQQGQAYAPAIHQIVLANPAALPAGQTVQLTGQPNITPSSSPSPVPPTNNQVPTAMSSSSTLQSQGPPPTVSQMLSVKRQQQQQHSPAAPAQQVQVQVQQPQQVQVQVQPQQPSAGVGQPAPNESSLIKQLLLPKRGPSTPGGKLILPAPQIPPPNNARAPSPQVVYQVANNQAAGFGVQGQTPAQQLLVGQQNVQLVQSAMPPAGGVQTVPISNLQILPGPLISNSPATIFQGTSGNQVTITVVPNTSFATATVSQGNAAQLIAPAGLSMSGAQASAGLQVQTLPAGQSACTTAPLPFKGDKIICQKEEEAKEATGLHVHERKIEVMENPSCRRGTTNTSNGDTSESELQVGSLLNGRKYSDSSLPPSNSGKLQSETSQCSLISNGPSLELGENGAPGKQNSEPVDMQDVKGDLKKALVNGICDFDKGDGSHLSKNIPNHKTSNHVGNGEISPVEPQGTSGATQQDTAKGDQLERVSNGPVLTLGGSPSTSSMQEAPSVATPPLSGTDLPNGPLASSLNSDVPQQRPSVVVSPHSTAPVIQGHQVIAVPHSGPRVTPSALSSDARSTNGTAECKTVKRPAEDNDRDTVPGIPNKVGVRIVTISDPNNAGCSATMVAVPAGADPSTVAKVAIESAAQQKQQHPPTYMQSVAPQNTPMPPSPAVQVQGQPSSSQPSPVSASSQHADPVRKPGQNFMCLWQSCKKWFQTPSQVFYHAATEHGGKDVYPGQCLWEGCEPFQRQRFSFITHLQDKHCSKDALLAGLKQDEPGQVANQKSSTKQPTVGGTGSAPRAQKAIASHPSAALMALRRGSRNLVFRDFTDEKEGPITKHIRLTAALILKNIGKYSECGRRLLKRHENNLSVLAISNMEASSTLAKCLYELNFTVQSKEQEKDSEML
# UniProt A2BH40: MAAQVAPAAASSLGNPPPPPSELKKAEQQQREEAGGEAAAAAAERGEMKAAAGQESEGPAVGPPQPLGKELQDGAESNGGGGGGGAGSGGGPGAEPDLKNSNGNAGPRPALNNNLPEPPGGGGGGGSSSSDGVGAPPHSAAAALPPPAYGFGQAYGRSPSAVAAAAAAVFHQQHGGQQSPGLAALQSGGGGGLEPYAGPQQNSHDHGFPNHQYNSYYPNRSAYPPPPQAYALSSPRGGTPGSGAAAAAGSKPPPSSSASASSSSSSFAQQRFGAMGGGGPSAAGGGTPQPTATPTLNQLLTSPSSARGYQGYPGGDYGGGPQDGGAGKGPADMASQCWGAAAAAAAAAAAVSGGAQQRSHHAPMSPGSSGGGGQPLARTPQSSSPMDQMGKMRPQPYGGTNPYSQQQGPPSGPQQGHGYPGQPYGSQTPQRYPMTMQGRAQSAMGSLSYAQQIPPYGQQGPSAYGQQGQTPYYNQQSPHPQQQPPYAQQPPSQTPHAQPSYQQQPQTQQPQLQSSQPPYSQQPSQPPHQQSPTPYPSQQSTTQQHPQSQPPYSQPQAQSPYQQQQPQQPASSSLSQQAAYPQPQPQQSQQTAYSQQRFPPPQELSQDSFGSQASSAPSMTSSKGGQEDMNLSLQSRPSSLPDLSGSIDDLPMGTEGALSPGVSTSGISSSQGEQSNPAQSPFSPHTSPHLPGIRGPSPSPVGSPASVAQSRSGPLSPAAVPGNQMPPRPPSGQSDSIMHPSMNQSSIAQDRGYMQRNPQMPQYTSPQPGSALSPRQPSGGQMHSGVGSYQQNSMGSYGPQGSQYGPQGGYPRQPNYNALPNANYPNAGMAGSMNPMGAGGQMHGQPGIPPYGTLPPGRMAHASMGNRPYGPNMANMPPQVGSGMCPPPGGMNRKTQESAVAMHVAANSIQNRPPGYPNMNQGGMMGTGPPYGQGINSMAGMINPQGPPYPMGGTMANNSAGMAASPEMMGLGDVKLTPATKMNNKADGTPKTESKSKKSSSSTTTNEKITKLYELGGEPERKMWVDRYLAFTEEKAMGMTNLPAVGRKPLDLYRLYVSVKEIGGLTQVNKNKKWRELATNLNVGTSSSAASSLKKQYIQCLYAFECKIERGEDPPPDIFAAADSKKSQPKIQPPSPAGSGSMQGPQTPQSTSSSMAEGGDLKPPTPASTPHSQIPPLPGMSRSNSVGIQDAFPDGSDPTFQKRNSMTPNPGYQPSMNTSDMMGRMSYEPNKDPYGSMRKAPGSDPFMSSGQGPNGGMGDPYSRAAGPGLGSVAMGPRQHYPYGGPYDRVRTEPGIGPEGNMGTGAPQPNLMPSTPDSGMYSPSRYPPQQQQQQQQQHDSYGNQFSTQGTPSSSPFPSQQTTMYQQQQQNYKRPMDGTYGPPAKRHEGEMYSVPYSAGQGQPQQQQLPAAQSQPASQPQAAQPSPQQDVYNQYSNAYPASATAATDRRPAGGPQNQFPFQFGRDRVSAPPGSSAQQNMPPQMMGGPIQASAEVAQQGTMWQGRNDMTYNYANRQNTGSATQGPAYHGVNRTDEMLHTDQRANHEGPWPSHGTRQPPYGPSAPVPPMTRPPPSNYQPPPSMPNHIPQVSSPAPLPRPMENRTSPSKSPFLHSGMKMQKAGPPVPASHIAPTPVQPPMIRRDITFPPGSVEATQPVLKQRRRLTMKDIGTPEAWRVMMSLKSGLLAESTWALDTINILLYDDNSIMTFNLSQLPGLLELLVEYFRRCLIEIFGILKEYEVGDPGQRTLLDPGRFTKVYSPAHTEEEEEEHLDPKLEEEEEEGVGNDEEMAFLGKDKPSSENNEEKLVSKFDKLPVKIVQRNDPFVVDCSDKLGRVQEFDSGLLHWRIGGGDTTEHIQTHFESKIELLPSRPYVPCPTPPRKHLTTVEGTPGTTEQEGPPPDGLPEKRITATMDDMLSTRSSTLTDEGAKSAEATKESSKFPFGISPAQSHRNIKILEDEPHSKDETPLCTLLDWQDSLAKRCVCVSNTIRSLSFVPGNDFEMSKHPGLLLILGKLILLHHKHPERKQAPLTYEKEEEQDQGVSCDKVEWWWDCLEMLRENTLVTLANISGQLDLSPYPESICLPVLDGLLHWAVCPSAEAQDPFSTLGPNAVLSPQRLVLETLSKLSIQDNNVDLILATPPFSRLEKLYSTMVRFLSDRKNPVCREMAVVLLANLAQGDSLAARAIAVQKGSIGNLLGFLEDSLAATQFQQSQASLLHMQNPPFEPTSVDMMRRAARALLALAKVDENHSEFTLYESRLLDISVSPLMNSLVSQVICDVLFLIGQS
# UniProt Q6P9Z1: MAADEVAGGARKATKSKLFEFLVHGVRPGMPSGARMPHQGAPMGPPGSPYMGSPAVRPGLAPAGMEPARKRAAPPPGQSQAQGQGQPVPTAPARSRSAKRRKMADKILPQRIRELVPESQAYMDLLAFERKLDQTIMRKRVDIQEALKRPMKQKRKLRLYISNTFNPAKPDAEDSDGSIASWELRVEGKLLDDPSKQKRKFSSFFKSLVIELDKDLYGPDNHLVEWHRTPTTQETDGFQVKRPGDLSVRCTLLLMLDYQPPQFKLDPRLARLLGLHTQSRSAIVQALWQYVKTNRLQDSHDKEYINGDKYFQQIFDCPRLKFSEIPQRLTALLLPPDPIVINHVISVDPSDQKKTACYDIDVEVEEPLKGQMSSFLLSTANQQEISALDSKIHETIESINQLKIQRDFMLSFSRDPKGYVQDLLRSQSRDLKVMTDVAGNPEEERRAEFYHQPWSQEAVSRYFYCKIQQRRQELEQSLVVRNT
# Biological target: chromodomain helicase DNA-binding protein 4 (CHD4), wild type, mouse (mouse (endogenous in embryonic hearts)) (UniProt Q6PDQ2)
# Assay: affinity purification with mass spectrometry
row,Substance,binding
1,ARID2 (from UniProt E9Q7E2 1-1828),binds
2,BAF155 (from UniProt P97496 1-1104),binds

# Results, then the substance that gave them:
row,binding,Substance
1,binds,ARID1A (from UniProt A2BH40 1-2283)
2,binds,BAF57 (from UniProt O54941 1-411)
3,binds,BAF60C (from UniProt Q6P9Z1 1-483)

# Source: doi:10.1101/2022.09.12.507607
